Test results: patent publication US4472579A, “Process for the preparation of quinoline carboxylic acid derivatives” (Kyorin Seiyaku Kabushiki Kaisha, priority 1980, dated 1984)
For at least one compound, name, drawing or mass did not settle the structure. Some entries repeat one wording, which the source may state once for all of them.

What was measured:
[1] = tested on: Gram-positive and Gram-negative bacteria; test: Antibacterial activity, standard agar dilution streak method (overall comparison); type: cell-based
[2] = Japanese Laid-Open Patent Application No. Sho 53-141286; cited from earlier work

| SMILES | antibacterial activity compared with nalidixic acid [1] | antimicrobial activities compared with known antimicrobial agents [2] |
| --- | --- | --- |
| C=Cn1cc(C(=O)O)c(=O)c2cc(F)c(N3CCN(C)CC3)cc21 [Example 9, 1-vinyl-6-fluoro-7-(4-methyl-1-piperazinyl)-4-oxo-1,4-dihydroquinoline-3-carboxylic acid] | more active than nalidixic acid against Gram-positive and Gram-negative bacteria |  |
| CCn1cc(C(=O)O)c(=O)c2cc(F)c(N3CCNCC3)cc21 [Example 1, 1-ethyl-6-fluoro-7-(1-piperazinyl)-4-oxo-1,4-dihydroquinoline-3-carboxylicacid] | more active than nalidixic acid against Gram-positive and Gram-negative bacteria | more potent antimicrobial activities than the known antimicrobial agents |
| C=Cn1cc(C(=O)O)c(=O)c2cc(F)c(N3CCNCC3)cc21 [Example 8, 1-vinyl-6-fluoro-7-(1-piperazinyl)-4-oxo-1,4-dihydroquinoline-3-carboxylicacid] | more active than nalidixic acid against Gram-positive and Gram-negative bacteria |  |
| CCn1cc(C(=O)O)c(=O)c2cc(F)c(N3CCN(C)CC3)cc21 [Example 6, 1-ethyl-6-fluoro-7-(4-methyl-1-piperazinyl)-4-oxo-1,4-dihydroquinoline-3-carboxylic acid] | more active than nalidixic acid against Gram-positive and Gram-negative bacteria |  |
